Some of the results follow.
compound: C1=CC=C(C=C1)[C@H](COC2=CC3=C(C=C2)NC(=O)N3)NC(=O)C4=CC=CN(C4=O)CC5=CC(=C(C=C5)F)F; assay: log2 fold change, soluble protein after heating vs DMSO (PISA); higher = thermal stabilisation; K562 lysate, 10 uM; active = over 0.2 and 3.5 SD of the protein, either way, in both replicates (recomputed)
Summary of the method: (§1)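 Soluble protein was defined as the supernatant remaining after 21,000xg for 90 min, following pooling of heated aliquots and adjustment to 0.5% NP-40 at 4°C. Before that, crude K562 extract at 1 mg/mL protein in PBS pH 7.4 with 1 mM MgCl2 was treated with 10 μM compound for 30 min and heated for 3 min across 48°C-58°C. Quantification used TMTpro 16plex LC-MS/MS with channel sums equalised, and values are log-two fold changes in thermal stability relative to solvent controls from duplicates.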

By UniProt entry, the sequences of proteins in these tests, tags left out. Where a name states a change or a piece, a line headed by the entry shows the natural chain unless it says otherwise.
UniProt Q96NT0: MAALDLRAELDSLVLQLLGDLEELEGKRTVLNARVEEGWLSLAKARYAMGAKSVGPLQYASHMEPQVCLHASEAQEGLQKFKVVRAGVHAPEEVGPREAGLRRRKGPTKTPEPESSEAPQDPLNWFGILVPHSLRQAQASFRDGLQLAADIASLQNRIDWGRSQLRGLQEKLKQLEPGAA
UniProt P50991: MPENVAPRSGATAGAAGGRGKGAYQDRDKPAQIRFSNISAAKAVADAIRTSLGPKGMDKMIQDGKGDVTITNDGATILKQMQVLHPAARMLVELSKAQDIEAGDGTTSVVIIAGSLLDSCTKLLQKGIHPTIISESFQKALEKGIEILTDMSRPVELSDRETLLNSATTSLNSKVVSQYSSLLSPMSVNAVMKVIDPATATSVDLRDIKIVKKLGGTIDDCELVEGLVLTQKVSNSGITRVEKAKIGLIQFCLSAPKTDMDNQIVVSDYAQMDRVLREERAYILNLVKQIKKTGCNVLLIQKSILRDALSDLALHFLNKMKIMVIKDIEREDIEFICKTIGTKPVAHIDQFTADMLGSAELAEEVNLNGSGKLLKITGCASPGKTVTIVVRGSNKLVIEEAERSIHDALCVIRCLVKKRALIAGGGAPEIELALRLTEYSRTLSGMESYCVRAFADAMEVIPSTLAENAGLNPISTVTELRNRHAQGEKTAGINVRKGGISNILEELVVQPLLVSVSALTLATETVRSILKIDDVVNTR
UniProt A6NKD9: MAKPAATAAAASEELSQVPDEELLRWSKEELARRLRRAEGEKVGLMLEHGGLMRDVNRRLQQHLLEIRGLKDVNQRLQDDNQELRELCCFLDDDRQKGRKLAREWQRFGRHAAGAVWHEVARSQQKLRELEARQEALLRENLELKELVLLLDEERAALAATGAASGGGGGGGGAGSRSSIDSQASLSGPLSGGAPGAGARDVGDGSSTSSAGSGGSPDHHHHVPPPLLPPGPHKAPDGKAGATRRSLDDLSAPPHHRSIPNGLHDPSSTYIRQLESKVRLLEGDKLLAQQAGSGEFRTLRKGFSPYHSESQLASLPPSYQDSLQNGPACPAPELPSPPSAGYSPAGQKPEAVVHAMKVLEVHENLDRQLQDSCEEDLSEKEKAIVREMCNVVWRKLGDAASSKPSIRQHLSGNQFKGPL
UniProt Q08722, whole entry, looked up: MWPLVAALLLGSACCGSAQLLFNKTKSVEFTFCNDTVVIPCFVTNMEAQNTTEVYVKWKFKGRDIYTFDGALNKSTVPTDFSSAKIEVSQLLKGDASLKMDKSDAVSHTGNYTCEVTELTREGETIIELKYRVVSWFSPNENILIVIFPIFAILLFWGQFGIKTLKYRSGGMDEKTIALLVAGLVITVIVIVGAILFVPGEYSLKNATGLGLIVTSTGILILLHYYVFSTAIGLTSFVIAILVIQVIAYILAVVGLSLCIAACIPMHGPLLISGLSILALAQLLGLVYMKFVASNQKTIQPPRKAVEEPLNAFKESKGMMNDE
UniProt P04040: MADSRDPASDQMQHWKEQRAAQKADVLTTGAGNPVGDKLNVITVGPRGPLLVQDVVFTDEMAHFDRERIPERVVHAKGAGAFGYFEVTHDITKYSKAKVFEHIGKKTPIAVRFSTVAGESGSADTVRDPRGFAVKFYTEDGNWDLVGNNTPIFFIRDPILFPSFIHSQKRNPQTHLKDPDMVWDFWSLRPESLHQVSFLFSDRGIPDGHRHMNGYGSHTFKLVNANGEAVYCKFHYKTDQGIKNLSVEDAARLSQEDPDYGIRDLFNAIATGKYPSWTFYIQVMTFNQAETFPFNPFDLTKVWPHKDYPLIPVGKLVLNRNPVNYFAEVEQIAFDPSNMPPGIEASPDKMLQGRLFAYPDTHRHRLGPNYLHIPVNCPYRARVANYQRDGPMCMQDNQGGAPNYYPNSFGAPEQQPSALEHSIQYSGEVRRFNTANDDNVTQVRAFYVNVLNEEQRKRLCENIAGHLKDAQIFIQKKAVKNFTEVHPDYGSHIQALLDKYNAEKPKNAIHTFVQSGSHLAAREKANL
UniProt O14936: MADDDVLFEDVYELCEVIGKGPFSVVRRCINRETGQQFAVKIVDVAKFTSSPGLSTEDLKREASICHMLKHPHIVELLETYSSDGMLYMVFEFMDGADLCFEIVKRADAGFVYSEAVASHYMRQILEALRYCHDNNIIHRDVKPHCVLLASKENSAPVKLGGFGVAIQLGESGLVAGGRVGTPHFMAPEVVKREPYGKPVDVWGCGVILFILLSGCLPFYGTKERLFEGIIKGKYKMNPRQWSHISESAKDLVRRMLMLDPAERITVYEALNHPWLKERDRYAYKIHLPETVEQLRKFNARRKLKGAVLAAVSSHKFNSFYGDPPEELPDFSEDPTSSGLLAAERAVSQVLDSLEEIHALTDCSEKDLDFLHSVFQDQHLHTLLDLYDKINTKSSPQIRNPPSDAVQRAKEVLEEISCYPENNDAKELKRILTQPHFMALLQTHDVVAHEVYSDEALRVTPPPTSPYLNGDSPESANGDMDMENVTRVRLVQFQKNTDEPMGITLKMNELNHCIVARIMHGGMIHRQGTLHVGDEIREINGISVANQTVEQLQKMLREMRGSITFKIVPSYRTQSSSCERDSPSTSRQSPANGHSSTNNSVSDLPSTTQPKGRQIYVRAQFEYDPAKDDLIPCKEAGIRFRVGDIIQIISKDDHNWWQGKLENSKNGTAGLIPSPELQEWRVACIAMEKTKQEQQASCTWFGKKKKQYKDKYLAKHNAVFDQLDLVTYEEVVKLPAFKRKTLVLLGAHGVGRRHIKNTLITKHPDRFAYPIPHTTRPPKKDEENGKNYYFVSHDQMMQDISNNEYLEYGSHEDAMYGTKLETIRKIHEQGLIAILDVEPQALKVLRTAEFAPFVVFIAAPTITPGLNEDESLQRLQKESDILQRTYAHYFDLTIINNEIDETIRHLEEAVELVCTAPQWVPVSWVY
UniProt Q13185: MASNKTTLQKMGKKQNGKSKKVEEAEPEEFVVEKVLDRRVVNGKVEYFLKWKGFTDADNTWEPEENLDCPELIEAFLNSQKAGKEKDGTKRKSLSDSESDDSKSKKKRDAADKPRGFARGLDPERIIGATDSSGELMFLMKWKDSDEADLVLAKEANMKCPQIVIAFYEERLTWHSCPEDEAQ
UniProt O95810: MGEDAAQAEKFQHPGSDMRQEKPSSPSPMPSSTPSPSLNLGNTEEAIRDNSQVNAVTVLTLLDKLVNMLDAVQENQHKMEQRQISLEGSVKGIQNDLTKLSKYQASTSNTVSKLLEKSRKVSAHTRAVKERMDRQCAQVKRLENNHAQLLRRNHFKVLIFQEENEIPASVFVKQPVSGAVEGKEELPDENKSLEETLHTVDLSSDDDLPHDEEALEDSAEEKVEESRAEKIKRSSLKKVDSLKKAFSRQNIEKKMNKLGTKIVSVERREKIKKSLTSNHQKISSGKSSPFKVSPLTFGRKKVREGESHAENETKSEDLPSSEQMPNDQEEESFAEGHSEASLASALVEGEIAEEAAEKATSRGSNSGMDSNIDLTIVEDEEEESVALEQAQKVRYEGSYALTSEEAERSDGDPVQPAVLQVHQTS
UniProt P50990: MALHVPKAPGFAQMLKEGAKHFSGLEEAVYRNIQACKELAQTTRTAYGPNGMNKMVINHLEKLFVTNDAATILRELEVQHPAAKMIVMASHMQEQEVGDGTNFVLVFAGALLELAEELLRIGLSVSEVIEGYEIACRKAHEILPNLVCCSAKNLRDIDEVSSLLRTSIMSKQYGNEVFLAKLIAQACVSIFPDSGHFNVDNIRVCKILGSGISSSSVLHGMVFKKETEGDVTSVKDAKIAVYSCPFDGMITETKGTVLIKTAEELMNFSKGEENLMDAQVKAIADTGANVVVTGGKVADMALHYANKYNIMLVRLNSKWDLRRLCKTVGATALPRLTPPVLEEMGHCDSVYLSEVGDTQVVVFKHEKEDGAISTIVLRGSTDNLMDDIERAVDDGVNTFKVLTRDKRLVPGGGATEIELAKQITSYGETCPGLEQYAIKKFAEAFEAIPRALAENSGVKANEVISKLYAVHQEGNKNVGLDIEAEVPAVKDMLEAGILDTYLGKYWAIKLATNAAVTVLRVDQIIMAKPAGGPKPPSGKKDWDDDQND
UniProt Q9NPF0: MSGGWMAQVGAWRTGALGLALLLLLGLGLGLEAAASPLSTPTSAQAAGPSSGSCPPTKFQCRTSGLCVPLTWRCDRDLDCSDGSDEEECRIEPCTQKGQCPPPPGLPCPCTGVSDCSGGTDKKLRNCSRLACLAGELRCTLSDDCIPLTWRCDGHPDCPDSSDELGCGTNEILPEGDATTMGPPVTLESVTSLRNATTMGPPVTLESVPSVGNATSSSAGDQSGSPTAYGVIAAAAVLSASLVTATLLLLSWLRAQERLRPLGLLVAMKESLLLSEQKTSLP
UniProt O95067, whole entry, looked up: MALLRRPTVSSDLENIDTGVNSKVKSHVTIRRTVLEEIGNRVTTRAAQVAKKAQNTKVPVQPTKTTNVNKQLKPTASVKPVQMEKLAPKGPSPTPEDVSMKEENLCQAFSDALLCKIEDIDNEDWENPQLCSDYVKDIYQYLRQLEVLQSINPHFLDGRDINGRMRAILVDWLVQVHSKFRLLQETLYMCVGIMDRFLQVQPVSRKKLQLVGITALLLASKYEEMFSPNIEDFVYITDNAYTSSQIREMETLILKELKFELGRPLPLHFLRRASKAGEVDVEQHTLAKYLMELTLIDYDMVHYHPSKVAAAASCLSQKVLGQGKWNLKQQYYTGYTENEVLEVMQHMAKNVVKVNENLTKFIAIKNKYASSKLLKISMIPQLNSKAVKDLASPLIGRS
UniProt P55211: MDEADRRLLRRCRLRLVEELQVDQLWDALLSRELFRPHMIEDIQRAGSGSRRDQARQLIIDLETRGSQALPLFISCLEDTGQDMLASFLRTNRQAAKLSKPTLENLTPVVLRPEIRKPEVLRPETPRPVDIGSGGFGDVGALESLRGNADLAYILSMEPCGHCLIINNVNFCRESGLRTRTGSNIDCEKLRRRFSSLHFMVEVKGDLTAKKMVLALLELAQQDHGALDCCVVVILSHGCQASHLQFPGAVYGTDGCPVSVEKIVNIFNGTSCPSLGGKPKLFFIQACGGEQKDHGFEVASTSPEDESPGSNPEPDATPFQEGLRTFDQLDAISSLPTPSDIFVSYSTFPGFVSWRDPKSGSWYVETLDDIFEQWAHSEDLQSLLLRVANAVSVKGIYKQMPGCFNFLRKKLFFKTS
UniProt P08962, whole entry, looked up: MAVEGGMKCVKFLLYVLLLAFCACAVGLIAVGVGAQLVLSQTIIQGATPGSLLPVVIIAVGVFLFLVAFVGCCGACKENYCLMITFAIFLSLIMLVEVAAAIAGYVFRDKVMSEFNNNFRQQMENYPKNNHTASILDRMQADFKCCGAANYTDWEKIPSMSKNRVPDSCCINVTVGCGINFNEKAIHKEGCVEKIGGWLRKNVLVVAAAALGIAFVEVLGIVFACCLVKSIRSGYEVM
UniProt Q9BSQ5: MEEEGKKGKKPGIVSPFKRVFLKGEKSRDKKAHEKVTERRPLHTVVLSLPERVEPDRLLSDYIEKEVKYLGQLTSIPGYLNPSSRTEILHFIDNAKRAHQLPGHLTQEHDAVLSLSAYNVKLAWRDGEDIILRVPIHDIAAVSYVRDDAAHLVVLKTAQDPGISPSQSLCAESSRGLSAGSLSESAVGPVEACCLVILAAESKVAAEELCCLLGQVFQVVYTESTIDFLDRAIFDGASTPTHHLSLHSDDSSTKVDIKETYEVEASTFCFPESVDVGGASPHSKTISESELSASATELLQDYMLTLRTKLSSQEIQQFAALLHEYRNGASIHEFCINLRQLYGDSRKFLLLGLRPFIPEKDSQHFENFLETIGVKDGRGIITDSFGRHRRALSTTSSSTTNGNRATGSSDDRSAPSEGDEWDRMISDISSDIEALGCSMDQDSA
UniProt O60563, whole entry, looked up: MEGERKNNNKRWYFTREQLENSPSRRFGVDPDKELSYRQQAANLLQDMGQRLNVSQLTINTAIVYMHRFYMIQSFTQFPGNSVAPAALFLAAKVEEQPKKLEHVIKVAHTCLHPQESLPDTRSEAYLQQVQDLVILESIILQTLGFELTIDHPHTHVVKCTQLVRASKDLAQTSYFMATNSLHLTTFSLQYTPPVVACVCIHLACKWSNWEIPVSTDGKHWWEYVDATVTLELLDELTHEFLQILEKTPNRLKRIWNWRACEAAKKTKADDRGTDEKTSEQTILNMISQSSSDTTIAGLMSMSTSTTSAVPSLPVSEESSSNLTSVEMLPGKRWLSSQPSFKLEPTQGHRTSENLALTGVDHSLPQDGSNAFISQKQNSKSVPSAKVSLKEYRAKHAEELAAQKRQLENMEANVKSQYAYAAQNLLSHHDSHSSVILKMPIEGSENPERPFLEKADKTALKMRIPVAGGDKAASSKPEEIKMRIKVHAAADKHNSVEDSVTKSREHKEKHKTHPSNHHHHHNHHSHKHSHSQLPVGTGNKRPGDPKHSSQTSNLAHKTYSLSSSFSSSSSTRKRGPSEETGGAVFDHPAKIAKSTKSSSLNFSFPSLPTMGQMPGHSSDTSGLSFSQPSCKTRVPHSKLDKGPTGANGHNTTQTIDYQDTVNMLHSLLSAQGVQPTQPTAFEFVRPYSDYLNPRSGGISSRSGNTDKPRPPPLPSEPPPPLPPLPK

Q: Which log2 fold change does the source give for CCDC115 (UniProt Q96NT0) here?
A: The log2 fold change was inactive: -0.01.

Q: How did the log2 fold change turn out when CCT4 (UniProt P50991) was run?
A: The log2 fold change was inactive: -0.012.

Q: With CCDC85C (UniProt A6NKD9) as the target, how does the log2 fold change read?
A: The log2 fold change was inactive: 0.049.

Q: For CCDC85B (UniProt Q15834), which log2 fold change is on record?
A: Its log2 fold change is inactive: -0.033.

Q: For CCDC124 (UniProt Q96CT7), which log2 fold change is on record?
A: Its log2 fold change is inactive: 0.049.

Q: Which log2 fold change does the source give for CD47 (UniProt Q08722) here?
A: The log2 fold change was inactive: 0.015.

Q: CBX5 (UniProt P45973) was tested. Which log2 fold change did it give?
A: The log2 fold change was inactive: 0.04.

Q: CAT (UniProt P04040) was tested. Which log2 fold change did it give?
A: Its log2 fold change is inactive: 0.016.

Q: Which log2 fold change does the source give for CASK (UniProt O14936) here?
A: Its log2 fold change is inactive: -0.069.

Q: For CASC3 (UniProt O15234), which log2 fold change is on record?
A: Its log2 fold change is inactive: 0.013.

Q: Which log2 fold change does the source give for CBX1 (UniProt P83916) here?
A: The log2 fold change was inactive: 0.031.

Q: CCDC57 (UniProt Q2TAC2) was tested. Which log2 fold change did it give?
A: The log2 fold change was inactive: -0.039.

Q: With CBX3 (UniProt Q13185) as the target, how does the log2 fold change read?
A: Its log2 fold change is inactive: 0.017.

Q: How did the log2 fold change turn out when CASP3 (UniProt P42574) was run?
A: The log2 fold change was inactive: 0.051.

Q: With CBR4 (UniProt Q8N4T8) as the target, how does the log2 fold change read?
A: The log2 fold change was inactive: 0.066.

Q: Which log2 fold change does the source give for CAVIN2 (UniProt O95810) here?
A: Its log2 fold change is inactive: 0.032.

Q: CD2AP (UniProt Q9Y5K6) was tested. Which log2 fold change did it give?
A: Its log2 fold change is inactive: 0.02.

Q: CCDC28B (UniProt Q9BUN5) was tested. Which log2 fold change did it give?
A: The log2 fold change was inactive: 0.077.

Q: For CCT8 (UniProt P50990), which log2 fold change is on record?
A: The log2 fold change was inactive: -0.001.

Q: Which log2 fold change does the source give for CD81 (UniProt P60033) here?
A: Its log2 fold change is inactive: 0.06.

Q: For CCDC186 (UniProt Q7Z3E2), which log2 fold change is on record?
A: The log2 fold change was inactive: 0.031.

Q: For CCNC (UniProt P24863), which log2 fold change is on record?
A: The log2 fold change was inactive: 0.045.

Q: For CD320 (UniProt Q9NPF0), which log2 fold change is on record?
A: Its log2 fold change is inactive: 0.09.

Q: How did the log2 fold change turn out when CC2D1A (UniProt Q6P1N0) was run?
A: The log2 fold change was inactive: 0.032.

Q: For CD55 isoform 7 (UniProt P08174), which log2 fold change is on record?
A: Its log2 fold change is inactive: 0.

Q: CCDC134 (UniProt Q9H6E4) was tested. Which log2 fold change did it give?
A: Its log2 fold change is inactive: 0.015.

Q: For CCNB2 (UniProt O95067), which log2 fold change is on record?
A: The log2 fold change was inactive: -0.005.

Q: How did the log2 fold change turn out when CASP9 (UniProt P55211) was run?
A: The log2 fold change was inactive: 0.041.

Q: How did the log2 fold change turn out when CASP6 (UniProt P55212) was run?
A: The log2 fold change was inactive: 0.004.

Q: CCNE1 (UniProt P24864) was tested. Which log2 fold change did it give?
A: Its log2 fold change is inactive: 0.014.

Q: How did the log2 fold change turn out when CCDC88A (UniProt Q3V6T2) was run?
A: Its log2 fold change is inactive: 0.01.

Q: CC2D1B isoform 2 (UniProt Q5T0F9) was tested. Which log2 fold change did it give?
A: Its log2 fold change is inactive: 0.024.

Q: Which log2 fold change does the source give for CD63 (UniProt P08962) here?
A: Its log2 fold change is inactive: 0.006.

Q: Which log2 fold change does the source give for CCDC47 (UniProt Q96A33) here?
A: The log2 fold change was inactive: -0.043.

Q: CCPG1 isoform 5 (UniProt Q9ULG6) was tested. Which log2 fold change did it give?
A: Its log2 fold change is inactive: -0.069.

Q: CCM2 isoform 2 (UniProt Q9BSQ5) was tested. Which log2 fold change did it give?
A: Its log2 fold change is inactive: 0.035.

Q: How did the log2 fold change turn out when CCS (UniProt O14618) was run?
A: Its log2 fold change is inactive: -0.024.

Q: For CCDC9 (UniProt Q9Y3X0), which log2 fold change is on record?
A: Its log2 fold change is inactive: 0.043.

Q: With CCNT1 (UniProt O60563) as the target, how does the log2 fold change read?
A: The log2 fold change was inactive: 0.001.

compound: CC1=C(SC2=C1C(=N[C@H](C3=NN=C(N32)C)CC(=O)N)C4=CC=C(C=C4)Cl)C; assay: as above
Summary of the method: as §1

Q: With CCDC115 (UniProt Q96NT0) as the target, how does the log2 fold change read?
A: The log2 fold change was inactive: -0.014.

Q: For CCT4 (UniProt P50991), which log2 fold change is on record?
A: The log2 fold change was inactive: 0.015.

Q: Which log2 fold change does the source give for CCDC85C (UniProt A6NKD9) here?
A: Its log2 fold change is inactive: 0.071.

Q: How did the log2 fold change turn out when CCDC85B (UniProt Q15834) was run?
A: The log2 fold change was inactive: -0.132.

Q: CCDC124 (UniProt Q96CT7) was tested. Which log2 fold change did it give?
A: The log2 fold change was inactive: -0.037.

Q: CD47 (UniProt Q08722) was tested. Which log2 fold change did it give?
A: The log2 fold change was inactive: -0.002.

Q: For CBX5 (UniProt P45973), which log2 fold change is on record?
A: Its log2 fold change is inactive: -0.002.

Q: How did the log2 fold change turn out when CAT (UniProt P04040) was run?
A: The log2 fold change was inactive: 0.005.

Q: Which log2 fold change does the source give for CASK (UniProt O14936) here?
A: The log2 fold change was inactive: -0.07.

Q: For CASC3 (UniProt O15234), which log2 fold change is on record?
A: Its log2 fold change is inactive: 0.015.

Q: How did the log2 fold change turn out when CBX1 (UniProt P83916) was run?
A: The log2 fold change was inactive: -0.03.

Q: For CCDC57 (UniProt Q2TAC2), which log2 fold change is on record?
A: The log2 fold change was inactive: 0.001.

Q: How did the log2 fold change turn out when CBX3 (UniProt Q13185) was run?
A: Its log2 fold change is inactive: 0.003.

Q: With CASP3 (UniProt P42574) as the target, how does the log2 fold change read?
A: Its log2 fold change is inactive: -0.011.

Q: With CBR4 (UniProt Q8N4T8) as the target, how does the log2 fold change read?
A: Its log2 fold change is inactive: -0.016.

Q: CAVIN2 (UniProt O95810) was tested. Which log2 fold change did it give?
A: Its log2 fold change is inactive: 0.021.

Q: Which log2 fold change does the source give for CD2AP (UniProt Q9Y5K6) here?
A: Its log2 fold change is inactive: 0.008.

Q: For CCDC28B (UniProt Q9BUN5), which log2 fold change is on record?
A: The log2 fold change was inactive: -0.019.

Q: Which log2 fold change does the source give for CCT8 (UniProt P50990) here?
A: The log2 fold change was inactive: 0.017.

Q: For CD81 (UniProt P60033), which log2 fold change is on record?
A: Its log2 fold change is inactive: -0.151.

Q: Which log2 fold change does the source give for CCDC186 (UniProt Q7Z3E2) here?
A: Its log2 fold change is inactive: 0.085.

Q: With CCNC (UniProt P24863) as the target, how does the log2 fold change read?
A: Its log2 fold change is inactive: -0.09.

Q: CD320 (UniProt Q9NPF0) was tested. Which log2 fold change did it give?
A: The log2 fold change was inactive: -0.089.

Q: Which log2 fold change does the source give for CC2D1A (UniProt Q6P1N0) here?
A: Its log2 fold change is inactive: -0.029.

Q: Which log2 fold change does the source give for CD55 isoform 7 (UniProt P08174) here?
A: The log2 fold change was inactive: 0.007.

Q: With CCDC134 (UniProt Q9H6E4) as the target, how does the log2 fold change read?
A: Its log2 fold change is inactive: 0.012.

Q: Which log2 fold change does the source give for CCNB2 (UniProt O95067) here?
A: Its log2 fold change is inactive: 0.026.

Q: Which log2 fold change does the source give for CASP9 (UniProt P55211) here?
A: The log2 fold change was inactive: -0.024.

Q: Which log2 fold change does the source give for CASP6 (UniProt P55212) here?
A: Its log2 fold change is inactive: 0.011.

Q: Which log2 fold change does the source give for CCNE1 (UniProt P24864) here?
A: Its log2 fold change is inactive: -0.006.

Q: With CCDC88A (UniProt Q3V6T2) as the target, how does the log2 fold change read?
A: The log2 fold change was inactive: 0.037.

Q: With CC2D1B isoform 2 (UniProt Q5T0F9) as the target, how does the log2 fold change read?
A: The log2 fold change was inactive: -0.022.

Q: CD63 (UniProt P08962) was tested. Which log2 fold change did it give?
A: The log2 fold change was inactive: 0.001.

Q: CCDC47 (UniProt Q96A33) was tested. Which log2 fold change did it give?
A: The log2 fold change was inactive: 0.005.

Q: With CCPG1 isoform 5 (UniProt Q9ULG6) as the target, how does the log2 fold change read?
A: The log2 fold change was inactive: -0.118.

Q: How did the log2 fold change turn out when CCM2 isoform 2 (UniProt Q9BSQ5) was run?
A: The log2 fold change was inactive: 0.007.

Q: Which log2 fold change does the source give for CCS (UniProt O14618) here?
A: Its log2 fold change is inactive: -0.026.

Q: With CCDC9 (UniProt Q9Y3X0) as the target, how does the log2 fold change read?
A: Its log2 fold change is inactive: 0.03.

Q: Which log2 fold change does the source give for CCNT1 (UniProt O60563) here?
A: The log2 fold change was inactive: 0.087.

Reference: the supplement of paper PMC10849652
